No constants are given. Whether binding was seen depends on the method and setting. In cells and extracts the contact can be indirect. Some results given as binding are weak or reduced against the parent protein; the word gives no strength. Blank lines part the entries; values can stand above or below the molecule they belong to.
What was measured:
[1] = target: myc-tagged-SUMO-2/3 (human) (UniProt P55854); assay: condition: only cells treated with glycyrrhizic acid; co-IP; as a1, but cells treated with glycyrrhizic acid
[2] = target: myc-tagged-SUMO-2/3 (human) (UniProt P55854); assay: co-IP; native immunoprecipitation of myc-SUMO from lysates (RIPA buffer) of HEK 293 cells transfected with SAE1/2, Ubc9, SENP2 and myc-SUMO-1 or myc-SUMO-3; cells treated with the vehicle control; 1 ug antibody overnight at 4°C, magnetic Protein G beads; Western blot
[3] = target: myc-tagged-SUMO-1 (human) (UniProt P63165); assay: co-IP
[4] = target: myc-tagged-SUMO-1 (human) (UniProt P63165); assay: condition: only cells treated with glycyrrhizic acid; co-IP; as a1, but cells treated with glycyrrhizic acid
[5] = target: myc-tagged-SUMO-1 (human) (UniProt P63165); assay: co-IP; as a1, but cells treated with ginkgolic acid

Sequences of proteins named here, by UniProt entry; tags and fusion partners are left off. Residues count along the entry.
UniProt P55854, residues 1-92: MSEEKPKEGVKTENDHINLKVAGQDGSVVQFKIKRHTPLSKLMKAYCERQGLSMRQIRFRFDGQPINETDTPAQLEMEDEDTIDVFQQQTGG
UniProt P63165, residues 1-97: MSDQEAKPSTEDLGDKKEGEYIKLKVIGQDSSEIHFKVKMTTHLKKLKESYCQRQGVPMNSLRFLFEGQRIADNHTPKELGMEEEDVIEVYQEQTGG
UniProt P63279: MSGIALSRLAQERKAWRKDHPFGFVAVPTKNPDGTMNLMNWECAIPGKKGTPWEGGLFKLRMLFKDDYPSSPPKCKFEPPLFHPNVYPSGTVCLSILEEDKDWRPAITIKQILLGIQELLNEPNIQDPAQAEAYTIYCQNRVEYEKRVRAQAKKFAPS

binding [1]: no binding | binding [2]: binds
Molecule: SUMO-conjugating enzyme (Ubc9) (from UniProt P63279 1-158)

binding [3]: binds | binding [4]: no binding | binding [1]: no binding | binding [2]: binds
B1: SUMO-protease (SENP2) (enzyme, UniProt Q9HC62 1-589)
chain: MYRWLVRILGTIFRFCDRSVPPARALLKRRRSDSTLFSTVDTDEIPAKRPRLDCFIHQVKNSLYNAASLFGFPFQLTTKPMVTSACNGTRNVAPSGEVFSNSSSCELTGSGSWNNMLKLGNKSPNGISDYPKIRVTVTRDQPRRVLPSFGFTLNSEGCNRRPGGRRHSKGNPESSLMWKPQEQAVTEMISEESGKGLRRPHCTVEEGVQKEEREKYRKLLERLKESGHGNSVCPVTSNYHSSQRSQMDTLKTKGWGEEQNHGVKTTQFVPKQYRLVETRGPLCSLRSEKRCSKGKITDTETMVGIRFENESRRGYQLEPDLSEEVSARLRLGSGSNGLLRRKVSIIETKEKNCSGKERDRRTDDLLELTEDMEKEISNALGHGPQDEILSSAFKLRITRGDIQTLKNYHWLNDEVINFYMNLLVERNKKQGYPALHVFSTFFYPKLKSGGYQAVKRWTKGVNLFEQEIILVPIHRKVHWSLVVIDLRKKCLKYLDSMGQKGHRICEILLQYLQDESKTKRNSDLNLLEWTHHSMKPHEIPQQLNGSDCGMFTCKYADYISRDKPITFTQHQMPLFRKKMVWEILHQQLL
binding [5]: no binding (condition: cells treated with ginkgolic acid)
